In publication PMC5769606:
Numbering of substitutions follows the chain as printed. Like-named read-outs stand apart in the source and are kept apart here. These are yes or no findings as the source states them, for the method shown. For part of these data: Binding seen in cells or lysates may run through a third protein. Some binding calls cover weakened binding; strength is not graded here. For part of these data: Tags and fused reporters may be left off the sequences shown.

Chains of the proteins cited; added tags and fusions are not shown.
UniProt Q02637: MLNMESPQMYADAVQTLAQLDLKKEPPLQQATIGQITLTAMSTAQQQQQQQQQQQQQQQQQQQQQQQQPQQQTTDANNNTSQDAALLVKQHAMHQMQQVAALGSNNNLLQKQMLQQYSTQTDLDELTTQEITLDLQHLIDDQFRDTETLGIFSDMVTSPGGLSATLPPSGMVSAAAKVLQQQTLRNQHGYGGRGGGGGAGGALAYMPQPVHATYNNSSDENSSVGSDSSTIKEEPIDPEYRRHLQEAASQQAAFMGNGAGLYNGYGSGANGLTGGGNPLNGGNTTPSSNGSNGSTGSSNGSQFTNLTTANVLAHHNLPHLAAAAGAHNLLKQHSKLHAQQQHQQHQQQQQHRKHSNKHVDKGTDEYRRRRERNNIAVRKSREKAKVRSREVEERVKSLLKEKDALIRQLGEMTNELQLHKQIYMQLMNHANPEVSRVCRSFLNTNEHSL

What was measured:
[1] = biological target: T1, FLAGTrbl WT two-hybrid bait (pDEST32) (Drosophila) (UniProt Q9V3Z1); experiment: two-hybrid; ProQuest system, S. cerevisiae MaV203; Trbl in bait vector pDEST32, dAkt or Slbo in prey vector pDEST22; growth on SC-Leu-Trp-His with 3AT at various concentrations, 3-4 days at 30°C
T1 sequence: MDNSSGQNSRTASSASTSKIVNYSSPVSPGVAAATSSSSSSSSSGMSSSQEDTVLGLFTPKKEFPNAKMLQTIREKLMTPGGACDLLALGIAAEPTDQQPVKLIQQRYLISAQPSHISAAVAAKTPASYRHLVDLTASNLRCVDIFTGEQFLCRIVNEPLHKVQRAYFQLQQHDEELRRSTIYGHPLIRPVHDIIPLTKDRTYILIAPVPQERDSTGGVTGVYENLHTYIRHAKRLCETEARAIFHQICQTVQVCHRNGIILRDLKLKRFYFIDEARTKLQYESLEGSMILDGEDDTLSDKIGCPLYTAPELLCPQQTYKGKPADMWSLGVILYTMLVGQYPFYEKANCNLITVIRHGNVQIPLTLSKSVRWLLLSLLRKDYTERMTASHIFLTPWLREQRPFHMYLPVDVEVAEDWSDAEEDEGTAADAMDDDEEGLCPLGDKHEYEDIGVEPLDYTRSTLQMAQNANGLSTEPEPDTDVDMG

[2] = biological target: T2, FLAGTrbl^R141Q two-hybrid bait (pDEST32) (Drosophila) (UniProt Q9V3Z1); experiment: as above
T2 sequence: T1 sequence with R141Q

[3] = biological target: T3, Trbl R141E two-hybrid bait (Drosophila) (UniProt Q9V3Z1); experiment: as above
T3 sequence: T1 sequence with R141E

[4] = biological target: T4, FLAG-tagged Drosophila Tribbles R141Q (UAS-FLAG-trbl^R141Q transgene) (Drosophila) (UniProt Q9V3Z1); experiment: co-IP; embryonic extracts misexpressing dAkt and WT or mutant Trbl; immunoprecipitation with Trbl antisera, western blot with anti-Akt sera
T4 sequence: T1 sequence with R141Q

[5] = biological target: T5, FLAG-tagged Drosophila Tribbles, wild type (UAS-FLAG-trbl.WT transgene) (Drosophila) (UniProt Q9V3Z1); experiment: as above
T5 sequence: T1 sequence

[6] = biological target: T1, FLAGTrbl WT two-hybrid bait (pDEST32) (Drosophila); experiment: two-hybrid; ProQuest system, S. cerevisiae MaV203; Trbl in bait vector pDEST32, dAkt or Slbo in prey vector pDEST22; growth on SC-Leu-Trp-His with 3AT at various concentrations, 3-4 days at 30°C; remark: listed apart in the source
[7] = biological target: T2, FLAGTrbl^R141Q two-hybrid bait (pDEST32) (Drosophila); experiment: as above; remark: listed apart in the source
[8] = biological target: T3, Trbl R141E two-hybrid bait (Drosophila); experiment: as above; remark: listed apart in the source
[9] = biological target: T6, FLAG-tagged Drosophila Tribbles R141E (UAS-FLAG-trbl^R141E transgene) (Drosophila) (UniProt Q9V3Z1); experiment: co-IP; larval fat body extracts misexpressing Trbl transgenes (r4-GAL4); anti-Trbl antibody on PrecipHen beads, glycine elution, blot for Akt
T6 sequence: T1 sequence with R141E

Slow border cells (Slbo) two-hybrid prey (pDEST22) (from UniProt Q02637 1-449)
binding [1]: binds | binding [2]: binds | binding [3]: binds

B1: Drosophila Akt misexpressed in embryos (enzyme, UniProt Q8INB9 1-611)
chain: MNYLPFVLQRRSTVVASAPAPGSASRIPESPTTTGSNIINIIYSQSTHPNSSPTSGSAEKFSWQQSWPSRTSAAPTHDSGTMSINTTFDLSSPSVTSGHALTEQTQVVKEGWLMKRGEHIKNWRQRYFVLHSDGRLMGYRSKPADSASTPSDFLLNNFTVRGCQIMTVDRPKPFTFIIRGLQWTTVIERTFAVESELERQQWTEAIRNVSSRLIDVGEVAMTPSEQTDMTDVDMATIAEDELSEQFSVQGTTCNSSGVKKVTLENFEFLKVLGKGTFGKVILCREKATAKLYAIKILKKEVIIQKDEVAHTLTESRVLKSTNHPFLISLKYSFQTNDRLCFVMQYVNGGELFWHLSHERIFTEDRTRFYGAEIISALGYLHSQGIIYRDLKLENLLLDKDGHIKVADFGLCKEDITYGRTTKTFCGTPEYLAPEVLDDNDYGQAVDWWGTGVVMYEMICGRLPFYNRDHDVLFTLILVEEVKFPRNITDEAKNLLAGLLAKDPKKRLGGGKDDVKEIQAHPFFASINWTDLVLKKIPPPFKPQVTSDTDTRYFDKEFTGESVELTPPDPTGPLGSIAEEPLFPQFSYQGDMASTLGTSSHISTSTSLASMQ
binding [4]: binds | binding [5]: binds

B2: dAkt two-hybrid prey (pDEST22) (enzyme, UniProt Q8INB9-2 1-530)
chain: MSINTTFDLSSPSVTSGHALTEQTQVVKEGWLMKRGEHIKNWRQRYFVLHSDGRLMGYRSKPADSASTPSDFLLNNFTVRGCQIMTVDRPKPFTFIIRGLQWTTVIERTFAVESELERQQWTEAIRNVSSRLIDVGEVAMTPSEQTDMTDVDMATIAEDELSEQFSVQGTTCNSSGVKKVTLENFEFLKVLGKGTFGKVILCREKATAKLYAIKILKKEVIIQKDEVAHTLTESRVLKSTNHPFLISLKYSFQTNDRLCFVMQYVNGGELFWHLSHERIFTEDRTRFYGAEIISALGYLHSQGIIYRDLKLENLLLDKDGHIKVADFGLCKEDITYGRTTKTFCGTPEYLAPEVLDDNDYGQAVDWWGTGVVMYEMICGRLPFYNRDHDVLFTLILVEEVKFPRNITDEAKNLLAGLLAKDPKKRLGGGKDDVKEIQAHPFFASINWTDLVLKKIPPPFKPQVTSDTDTRYFDKEFTGESVELTPPDPTGPLGSIAEEPLFPQFSYQGDMASTLGTSSHISTSTSLASMQ
binding [6]: binds | binding [7]: binds | binding [8]: binds

B3: Drosophila Akt in larval fat body extract (enzyme, UniProt Q8INB9 1-611)
chain: B1 chain
binding [9]: binds
